Results are given in words; binding and its absence hold for the method and conditions named. For some of these results: Binding calls can cover weak binding; strength is not graded here. For some of these results: Binding seen in cells or lysates may run through a third protein.
Tests used:
[1] = target: recombinant full length His6-BID (UniProt P70444); experiment: pull-down
[2] = target: BID, endogenous (mouse (endogenous in HT-22 cells, primary mouse cortical neurons and mouse brain)) (UniProt P70444); experiment: co-IP
[3] = target: VDAC1, endogenous (mouse (endogenous in HT-22 cells, primary mouse cortical neurons and mouse brain)) (UniProt Q60932); experiment: co-IP
FLAG-tagged VDAC1 = FLAG-tagged VDAC1 (UniProt Q60932); experiment: co-IP
[4] = target: VDAC1, endogenous (mouse (endogenous in HT-22 cells, primary mouse cortical neurons and mouse brain)) (UniProt Q60932); experiment: co-IP; remark: listed apart in the source
[5] = target: VDAC1, endogenous (mouse (endogenous in HT-22 cells, primary mouse cortical neurons and mouse brain)) (UniProt Q60932); experiment: co-IP; remark: listed apart in the source
[6] = target: VDAC1, endogenous (mouse (endogenous in HT-22 cells, primary mouse cortical neurons and mouse brain)) (UniProt Q60932); experiment: condition: only control tissue or ischemic cortex 2 hours after MCAO

Protein sequences, listed by entry. Tags and fused reporters are not part of them. Lines headed by an entry give the natural chain unless they say otherwise; changes in a name come on top.
UniProt P70444: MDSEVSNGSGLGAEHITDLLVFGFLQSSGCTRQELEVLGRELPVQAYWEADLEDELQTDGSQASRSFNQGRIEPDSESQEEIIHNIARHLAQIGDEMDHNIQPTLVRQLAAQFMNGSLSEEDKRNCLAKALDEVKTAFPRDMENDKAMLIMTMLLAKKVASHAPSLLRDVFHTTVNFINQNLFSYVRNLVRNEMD
UniProt Q60932: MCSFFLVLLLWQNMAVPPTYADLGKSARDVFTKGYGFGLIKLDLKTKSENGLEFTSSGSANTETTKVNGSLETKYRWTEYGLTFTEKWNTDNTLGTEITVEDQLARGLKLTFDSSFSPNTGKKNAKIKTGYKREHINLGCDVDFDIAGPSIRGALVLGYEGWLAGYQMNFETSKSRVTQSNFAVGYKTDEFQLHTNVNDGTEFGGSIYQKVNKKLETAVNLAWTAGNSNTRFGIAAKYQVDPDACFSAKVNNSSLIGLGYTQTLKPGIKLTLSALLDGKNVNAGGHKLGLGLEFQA

recombinant mVDAC1 (voltage-dependent anion channel 1) (from UniProt Q60932)
binding [1]: binds

VDAC1, endogenous (from UniProt Q60932)
binding [2]: binds

BID, endogenous (from UniProt P70444 1-195)
binding [3]: binds
binding (FLAG-tagged VDAC1): binds
binding [4]: binds
binding [5]: binds
binding [6]: no binding
